Test results reported in the supplement of paper PMC10849652.
This is one part of the list.

The chains behind the UniProt entries cited, without tags or fusion partners. Where a name states a change or a piece, a line headed by the entry shows the natural chain unless it says otherwise.
UniProt Q4G0I0: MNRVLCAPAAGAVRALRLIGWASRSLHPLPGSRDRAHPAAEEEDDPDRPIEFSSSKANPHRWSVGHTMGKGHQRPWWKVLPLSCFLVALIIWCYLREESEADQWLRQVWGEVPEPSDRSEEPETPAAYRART
UniProt O75081: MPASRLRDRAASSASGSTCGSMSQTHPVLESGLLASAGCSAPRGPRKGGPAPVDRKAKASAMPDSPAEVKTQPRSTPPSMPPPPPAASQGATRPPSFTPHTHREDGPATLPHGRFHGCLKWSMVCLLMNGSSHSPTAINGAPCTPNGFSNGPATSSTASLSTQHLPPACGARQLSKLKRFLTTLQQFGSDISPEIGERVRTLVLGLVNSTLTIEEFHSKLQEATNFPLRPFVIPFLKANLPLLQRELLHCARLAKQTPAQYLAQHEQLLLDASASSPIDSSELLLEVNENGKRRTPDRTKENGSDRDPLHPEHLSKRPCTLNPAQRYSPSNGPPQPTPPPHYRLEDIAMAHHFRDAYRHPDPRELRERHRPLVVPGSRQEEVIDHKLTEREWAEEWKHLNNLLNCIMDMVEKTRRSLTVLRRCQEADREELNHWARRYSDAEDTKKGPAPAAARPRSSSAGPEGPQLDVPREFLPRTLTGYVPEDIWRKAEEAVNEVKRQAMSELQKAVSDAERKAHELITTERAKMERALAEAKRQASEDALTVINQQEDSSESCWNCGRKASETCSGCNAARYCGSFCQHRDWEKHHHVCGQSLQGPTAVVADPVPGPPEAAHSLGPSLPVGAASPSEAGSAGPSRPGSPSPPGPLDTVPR
UniProt P13987: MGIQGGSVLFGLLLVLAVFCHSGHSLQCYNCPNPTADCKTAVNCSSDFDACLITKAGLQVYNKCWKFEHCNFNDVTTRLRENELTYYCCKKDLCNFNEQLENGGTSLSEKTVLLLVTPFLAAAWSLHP
UniProt P55211: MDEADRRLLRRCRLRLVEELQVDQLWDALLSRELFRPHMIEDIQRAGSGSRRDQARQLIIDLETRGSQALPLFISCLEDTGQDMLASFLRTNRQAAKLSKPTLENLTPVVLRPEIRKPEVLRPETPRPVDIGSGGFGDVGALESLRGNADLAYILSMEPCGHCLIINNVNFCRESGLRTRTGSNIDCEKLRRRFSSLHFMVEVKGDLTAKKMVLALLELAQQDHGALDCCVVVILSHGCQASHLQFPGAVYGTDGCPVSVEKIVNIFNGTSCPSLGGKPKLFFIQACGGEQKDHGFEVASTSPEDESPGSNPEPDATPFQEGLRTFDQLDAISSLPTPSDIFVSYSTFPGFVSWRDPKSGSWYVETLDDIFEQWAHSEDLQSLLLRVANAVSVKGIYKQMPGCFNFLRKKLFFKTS
UniProt Q567U6, whole entry, looked up: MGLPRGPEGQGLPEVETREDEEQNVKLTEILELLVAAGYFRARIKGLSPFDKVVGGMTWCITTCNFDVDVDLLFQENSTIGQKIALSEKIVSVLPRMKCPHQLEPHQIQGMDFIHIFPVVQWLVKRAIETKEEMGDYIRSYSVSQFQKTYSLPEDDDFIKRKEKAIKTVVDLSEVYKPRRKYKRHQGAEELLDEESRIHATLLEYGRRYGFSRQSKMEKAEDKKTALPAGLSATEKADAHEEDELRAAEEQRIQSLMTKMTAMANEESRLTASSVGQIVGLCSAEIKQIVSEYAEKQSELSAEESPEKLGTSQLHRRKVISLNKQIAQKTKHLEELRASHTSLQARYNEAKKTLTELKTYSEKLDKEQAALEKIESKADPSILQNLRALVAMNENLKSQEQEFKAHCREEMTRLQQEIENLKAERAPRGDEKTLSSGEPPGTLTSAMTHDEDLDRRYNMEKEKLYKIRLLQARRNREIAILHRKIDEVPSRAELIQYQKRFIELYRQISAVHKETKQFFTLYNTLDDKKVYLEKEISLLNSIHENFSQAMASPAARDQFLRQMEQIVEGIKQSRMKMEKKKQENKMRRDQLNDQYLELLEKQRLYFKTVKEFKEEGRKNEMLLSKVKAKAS
UniProt Q8WXE0: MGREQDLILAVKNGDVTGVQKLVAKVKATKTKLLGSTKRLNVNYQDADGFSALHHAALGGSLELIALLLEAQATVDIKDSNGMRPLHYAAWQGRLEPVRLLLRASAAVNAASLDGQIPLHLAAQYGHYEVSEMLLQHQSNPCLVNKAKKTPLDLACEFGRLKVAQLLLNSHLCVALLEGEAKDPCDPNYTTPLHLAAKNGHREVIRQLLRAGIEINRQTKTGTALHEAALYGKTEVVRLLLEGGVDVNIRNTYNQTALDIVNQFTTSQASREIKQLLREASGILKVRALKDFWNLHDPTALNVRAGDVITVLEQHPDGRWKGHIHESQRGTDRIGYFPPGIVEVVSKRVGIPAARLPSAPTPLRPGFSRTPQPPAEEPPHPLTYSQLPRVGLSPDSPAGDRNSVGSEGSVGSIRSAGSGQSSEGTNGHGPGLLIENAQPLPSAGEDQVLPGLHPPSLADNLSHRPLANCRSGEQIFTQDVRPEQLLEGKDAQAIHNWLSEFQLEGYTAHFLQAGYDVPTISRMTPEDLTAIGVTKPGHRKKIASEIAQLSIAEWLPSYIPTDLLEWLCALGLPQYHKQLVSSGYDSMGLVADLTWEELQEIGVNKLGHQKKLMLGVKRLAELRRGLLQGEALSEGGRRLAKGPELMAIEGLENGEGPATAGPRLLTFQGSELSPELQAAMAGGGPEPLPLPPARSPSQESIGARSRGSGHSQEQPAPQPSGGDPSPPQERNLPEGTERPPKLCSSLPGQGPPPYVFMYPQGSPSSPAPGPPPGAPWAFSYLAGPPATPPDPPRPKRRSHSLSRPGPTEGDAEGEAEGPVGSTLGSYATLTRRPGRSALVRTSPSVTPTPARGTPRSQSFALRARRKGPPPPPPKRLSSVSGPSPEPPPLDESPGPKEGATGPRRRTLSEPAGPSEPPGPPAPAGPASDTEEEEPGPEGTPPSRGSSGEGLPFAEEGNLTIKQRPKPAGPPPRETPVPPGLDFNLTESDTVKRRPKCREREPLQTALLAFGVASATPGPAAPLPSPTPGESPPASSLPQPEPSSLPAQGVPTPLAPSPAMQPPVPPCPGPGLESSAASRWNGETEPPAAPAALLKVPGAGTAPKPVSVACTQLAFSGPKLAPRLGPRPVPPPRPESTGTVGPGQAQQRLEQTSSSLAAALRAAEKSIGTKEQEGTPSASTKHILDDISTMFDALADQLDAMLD
UniProt P19256, whole entry, looked up: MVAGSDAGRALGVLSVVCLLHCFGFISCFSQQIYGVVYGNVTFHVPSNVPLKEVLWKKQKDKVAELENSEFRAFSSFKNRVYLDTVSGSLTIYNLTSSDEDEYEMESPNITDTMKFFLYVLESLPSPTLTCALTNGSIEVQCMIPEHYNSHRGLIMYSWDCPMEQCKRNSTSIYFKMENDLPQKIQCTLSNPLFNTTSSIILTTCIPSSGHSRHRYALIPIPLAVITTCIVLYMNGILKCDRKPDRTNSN
UniProt Q9P031: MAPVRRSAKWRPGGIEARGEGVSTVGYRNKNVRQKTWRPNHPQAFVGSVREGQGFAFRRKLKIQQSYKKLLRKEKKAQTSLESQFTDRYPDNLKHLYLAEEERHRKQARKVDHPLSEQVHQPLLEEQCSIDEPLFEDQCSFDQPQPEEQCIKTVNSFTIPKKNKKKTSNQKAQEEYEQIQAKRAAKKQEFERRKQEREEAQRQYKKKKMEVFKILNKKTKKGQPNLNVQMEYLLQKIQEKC
UniProt Q9BV29: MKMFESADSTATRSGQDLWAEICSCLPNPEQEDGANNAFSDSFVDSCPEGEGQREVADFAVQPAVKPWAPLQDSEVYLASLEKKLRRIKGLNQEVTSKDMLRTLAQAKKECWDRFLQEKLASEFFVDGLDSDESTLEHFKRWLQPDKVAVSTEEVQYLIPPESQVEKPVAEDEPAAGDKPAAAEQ
UniProt P15529: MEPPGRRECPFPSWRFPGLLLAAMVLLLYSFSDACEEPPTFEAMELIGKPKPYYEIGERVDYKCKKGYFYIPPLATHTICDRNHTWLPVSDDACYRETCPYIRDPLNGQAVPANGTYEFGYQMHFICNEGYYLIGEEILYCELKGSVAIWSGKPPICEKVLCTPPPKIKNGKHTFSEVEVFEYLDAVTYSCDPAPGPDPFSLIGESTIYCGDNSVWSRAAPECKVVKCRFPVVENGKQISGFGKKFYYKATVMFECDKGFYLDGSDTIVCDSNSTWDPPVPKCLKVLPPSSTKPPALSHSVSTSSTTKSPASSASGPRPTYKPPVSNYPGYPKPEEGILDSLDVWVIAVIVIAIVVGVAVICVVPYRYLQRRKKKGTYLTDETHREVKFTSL
UniProt Q6NZI2: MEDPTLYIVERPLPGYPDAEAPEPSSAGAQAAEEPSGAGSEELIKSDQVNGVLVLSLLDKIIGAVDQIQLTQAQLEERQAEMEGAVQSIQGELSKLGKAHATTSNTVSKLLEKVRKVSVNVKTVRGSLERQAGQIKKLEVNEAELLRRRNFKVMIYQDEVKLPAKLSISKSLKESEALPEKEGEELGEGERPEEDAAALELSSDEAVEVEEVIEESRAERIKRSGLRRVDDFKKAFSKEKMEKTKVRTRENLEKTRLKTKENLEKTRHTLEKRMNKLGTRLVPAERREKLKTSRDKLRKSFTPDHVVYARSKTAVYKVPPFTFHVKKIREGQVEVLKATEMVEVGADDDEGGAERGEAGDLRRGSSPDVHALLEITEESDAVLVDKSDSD
UniProt Q9H6E4: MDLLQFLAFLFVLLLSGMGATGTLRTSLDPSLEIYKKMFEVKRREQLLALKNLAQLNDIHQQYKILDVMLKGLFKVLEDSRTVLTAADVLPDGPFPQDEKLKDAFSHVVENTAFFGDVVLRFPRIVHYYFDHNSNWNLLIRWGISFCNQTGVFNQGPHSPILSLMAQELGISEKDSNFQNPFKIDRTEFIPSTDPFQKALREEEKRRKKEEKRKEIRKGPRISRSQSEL
UniProt P50990: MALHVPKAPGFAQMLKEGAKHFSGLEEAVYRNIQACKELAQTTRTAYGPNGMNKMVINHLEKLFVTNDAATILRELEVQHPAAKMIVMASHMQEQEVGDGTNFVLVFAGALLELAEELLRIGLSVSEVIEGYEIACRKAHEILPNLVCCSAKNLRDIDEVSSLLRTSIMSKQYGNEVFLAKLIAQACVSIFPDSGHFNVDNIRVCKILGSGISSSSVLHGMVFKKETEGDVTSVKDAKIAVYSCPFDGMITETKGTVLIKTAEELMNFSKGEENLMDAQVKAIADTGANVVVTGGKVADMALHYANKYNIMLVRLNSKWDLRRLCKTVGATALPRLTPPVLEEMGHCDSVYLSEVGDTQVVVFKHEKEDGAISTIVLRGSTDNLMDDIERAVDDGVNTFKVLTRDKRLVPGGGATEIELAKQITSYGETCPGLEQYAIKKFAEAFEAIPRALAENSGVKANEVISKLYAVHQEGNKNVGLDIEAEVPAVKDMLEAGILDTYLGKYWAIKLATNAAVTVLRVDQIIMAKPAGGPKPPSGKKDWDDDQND
UniProt P35520: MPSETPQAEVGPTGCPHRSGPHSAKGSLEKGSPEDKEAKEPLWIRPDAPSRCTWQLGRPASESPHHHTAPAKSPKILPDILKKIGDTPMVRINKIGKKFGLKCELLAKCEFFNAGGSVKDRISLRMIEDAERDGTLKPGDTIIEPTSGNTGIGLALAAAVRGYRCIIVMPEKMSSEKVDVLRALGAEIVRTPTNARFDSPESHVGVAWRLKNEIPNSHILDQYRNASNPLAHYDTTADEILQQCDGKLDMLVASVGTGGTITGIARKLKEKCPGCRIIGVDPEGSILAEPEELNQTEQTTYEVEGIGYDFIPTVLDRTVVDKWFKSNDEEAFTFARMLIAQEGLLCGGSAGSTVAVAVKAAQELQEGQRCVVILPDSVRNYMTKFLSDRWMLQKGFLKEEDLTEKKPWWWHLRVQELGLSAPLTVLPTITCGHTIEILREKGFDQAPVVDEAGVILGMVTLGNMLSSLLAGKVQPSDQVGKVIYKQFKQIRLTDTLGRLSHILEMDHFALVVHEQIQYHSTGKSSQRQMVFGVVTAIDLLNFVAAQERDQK
UniProt Q9Y2V2: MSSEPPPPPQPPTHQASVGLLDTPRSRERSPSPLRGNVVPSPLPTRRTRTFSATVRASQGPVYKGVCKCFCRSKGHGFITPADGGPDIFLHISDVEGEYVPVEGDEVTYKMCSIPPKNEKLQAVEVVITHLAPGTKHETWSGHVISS
UniProt Q96NT0: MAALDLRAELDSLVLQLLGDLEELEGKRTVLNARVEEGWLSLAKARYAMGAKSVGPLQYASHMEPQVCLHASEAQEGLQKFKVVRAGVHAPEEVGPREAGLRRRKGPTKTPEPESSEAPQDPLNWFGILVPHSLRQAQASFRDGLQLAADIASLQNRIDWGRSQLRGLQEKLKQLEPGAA

How the values were obtained:
Test in all cases: log2 fold change, soluble protein after heating vs DMSO (PISA); higher = thermal stabilisation; K562 lysate, 10 uM; active = over 0.2 and 3.5 SD of the protein, either way, in both replicates (recomputed)
[1] = compound: CS(=O)(=O)CCNCc1ccc(-c2ccc3ncnc(Nc4ccc(OCc5cccc(F)c5)c(Cl)c4)c3c2)o1 [lapatinib]
Procedure, shortened: (§1)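 Quantification was by TMTpro 16plex LC-MS/MS with equalised channel sums, applied to the supernatant after 21,000xg for 90 min. Samples were crude K562 extract at 1 mg/mL protein in PBS pH 7.4 with 1 mM MgCl2, treated with 10 μM compound for 30 min, heated for 3 min across 48°C-58°C, pooled and brought to 0.5% NP-40 at 4°C. Values are log-two fold changes in thermal stability relative to solvent controls, from duplicates.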

[2] = compound: CS(=O)(=O)N1CCN(Cc2cc3nc(-c4cccc5[nH]ncc45)nc(N4CCOCC4)c3s2)CC1 [pictilisib]
Procedure, shortened: as §1

[3] = compound: C[C@@H](Oc1cc(-c2cnn(C3CCNCC3)c2)cnc1N)c1c(Cl)ccc(F)c1Cl [crizotinib]
Procedure, shortened: as §1

[4] = compound: C[C@H](C1=CC=C(C=C1)C(=O)NC2=C3C=CNC3=NC=C2)N
Procedure, shortened: as §1

[5] = compound: C[C@H](Nc1ncnc2nc[nH]c12)c1cc2cccc(Cl)c2c(=O)n1-c1ccccc1 [duvelisib]
Procedure, shortened: as §1

[6] = compound: Cc1cc(Nc2cc(CN3CCOCC3)c3nc(C)c(Cc4ccc(Cl)cc4F)n3n2)n[nH]1 [gandotinib]
Procedure, shortened: as §1

[7] = compound: Cc1cc(Nc2cc(N3CCN(C)CC3)nc(Sc3ccc(NC(=O)C4CC4)cc3)n2)n[nH]1 [tozasertib]
Procedure, shortened: as §1

[8] = compound: Cc1ccc(-n2nc(C(C)(C)C)cc2NC(=O)Nc2ccc(OCCN3CCOCC3)c3ccccc23)cc1 [doramapimod]
Procedure, shortened: as §1

[9] = compound: Cc1ccc(NC(=O)c2ccc(CN3CC[C@H](N(C)C)C3)c(C(F)(F)F)c2)cc1Nc1nccc(-c2cncnc2)n1 [bafetinib]
Procedure, shortened: as §1

[10] = compound: Cc1cccc(CC(=O)N2CCc3c2ccc(-c2cn(C)c4ncnc(N)c24)c3F)n1
Procedure, shortened: as §1

[11] = compound: Cc1cn(-c2cc(NC(=O)c3ccc(C)c(Nc4nccc(-c5cccnc5)n4)c3)cc(C(F)(F)F)c2)cn1 [nilotinib]
Procedure, shortened: as §1

[12] = compound: Cc1nc(Nc2n[nH]c3c2CN(C(=O)N[C@H](CN(C)C)c2ccccc2)C3(C)C)c2sccc2n1
Procedure, shortened: as §1

[13] = compound: Cc1nc(Nc2ncc(C(=O)Nc3c(C)cccc3Cl)s2)cc(N2CCN(CCO)CC2)n1 [dasatinib]
Procedure, shortened: as §1

[14] = compound: Cc1ncc(-c2ccnc(Nc3ccc(S(C)(=O)=O)cc3)n2)n1C(C)C
Procedure, shortened: as §1

[15] = compound: Cn1cc(-c2ccc3c(c2)CCN3C(=O)Cc2cccc(C(F)(F)F)c2)c2c(N)ncnc21
Procedure, shortened: as §1

[16] = compound: Cn1cc(CNCC2CCN(c3ncc(C(=O)NO)cn3)CC2)c2ccccc21 [quisinostat]
Procedure, shortened: as §1

[17] = compound: Cn1cncc1[C@@](N)(c1ccc(Cl)cc1)c1ccc2c(c1)c(-c1cccc(Cl)c1)cc(=O)n2C [tipifarnib]
Procedure, shortened: as §1

[18] = compound: NC(=O)Nc1cc(-c2cccc(F)c2)sc1C(=O)N[C@H]1CCCNC1
Procedure, shortened: as §1

[19] = compound: NC(=O)c1cnc(N[C@@H]2CCCC[C@@H]2N)nc1Nc1cccc(-n2nccn2)c1
Procedure, shortened: as §1

[20] = compound: NC1(c2ccc(-c3nc4ccn5c(=O)[nH]nc5c4cc3-c3ccccc3)cc2)CCC1
Procedure, shortened: as §1

Measured: log2 fold change

CCSMST1 (UniProt Q4G0I0)
inactive: [1] -0.04 | [2] -0.058 | [3] -0.034 | [4] -0.1 | [5] -0.046 | [6] 0.001 | [7] -0.046 | [8] 0.046 | [9] -0.007 | [10] 0.02 | [11] 0.069 | [12] 0.05 | [13] -0.069 | [14] -0.127 | [15] 0.076 | [16] -0.065 | [17] 0.096 | [18] -0.057 | [19] 0.03 | [20] -0.062

CBFA2T3 (UniProt O75081)
inactive: [1] 0.041 | [2] -0.038 | [3] 0.013 | [4] 0.017 | [5] 0.006 | [6] -0.001 | [7] -0.014 | [8] 0.007 | [9] -0.007 | [10] 0.05 | [11] -0.018 | [12] 0.02 | [13] -0.026 | [14] -0.019 | [15] -0.008 | [16] -0.07 | [17] -0.047 | [18] 0.043 | [19] 0 | [20] 0.001

CD59 isoform 2 (UniProt P13987)
inactive: [1] -0.037 | [2] 0.039 | [3] 0.03 | [4] -0.026 | [5] 0.053 | [6] 0.054 | [7] 0.011 | [8] 0.002 | [9] 0.127 | [10] 0.023 | [11] -0.106 | [12] -0.084 | [13] 0.046 | [14] -0.194 | [15] 0.037 | [16] -0.107 | [17] -0.038 | [18] 0 | [19] -0.002 | [20] 0.031

CASP9 (UniProt P55211)
inactive: [1] 0.003 | [2] 0.011 | [3] -0.047 | [4] -0.036 | [5] 0.036 | [6] -0.027 | [7] 0.017 | [8] 0.009 | [9] -0.069 | [10] 0.082 | [11] -0.004 | [12] 0.006 | [13] -0.055 | [14] -0.012 | [15] -0.013 | [16] -0.056 | [17] 0.005 | [18] 0.056 | [19] -0.011 | [20] 0.007

CCDC93 (UniProt Q567U6)
inactive: [1] -0.008 | [2] -0.059 | [3] 0.016 | [4] -0.022 | [5] 0.016 | [6] 0.018 | [7] -0.009 | [8] -0.017 | [9] -0.03 | [10] 0.099 | [11] -0.046 | [12] -0.026 | [13] -0.073 | [14] -0.012 | [15] 0.001 | [16] -0.017 | [17] -0.024 | [18] 0.081 | [19] -0.013 | [20] 0.019

CASKIN2 (UniProt Q8WXE0)
inactive: [1] 0 | [2] -0.028 | [3] -0.025 | [4] -0.064 | [5] -0.037 | [6] -0.012 | [7] 0.004 | [8] 0.042 | [9] -0.076 | [10] 0.007 | [11] 0.012 | [12] -0.027 | [13] 0.018 | [14] 0.004 | [15] -0.017 | [16] -0.052 | [17] -0.062 | [18] -0.075 | [19] 0.017 | [20] -0.062

CD58 (UniProt P19256)
inactive: [1] 0.004 | [2] -0.123 | [3] 0.074 | [4] -0.056 | [5] 0.068 | [6] -0.055 | [7] 0.027 | [8] 0.007 | [9] -0.149 | [10] 0.043 | [11] -0.061 | [12] 0.008 | [13] 0.076 | [14] 0.027 | [15] 0.062 | [16] 0.018 | [17] 0.015 | [18] -0.015 | [19] 0.001 | [20] 0.024

CCDC59 (UniProt Q9P031)
inactive: [1] 0.043 | [2] -0.034 | [3] 0.015 | [4] -0.013 | [5] 0.009 | [6] 0.01 | [7] 0.001 | [8] 0.069 | [9] -0.055 | [10] -0.01 | [11] -0.004 | [12] -0.124 | [13] 0.041 | [14] 0.01 | [15] -0.025 | [16] -0.077 | [17] 0.104 | [18] 0.044 | [19] -0.001

CCDC32 isoform 2 (UniProt Q9BV29)
inactive: [1] 0.04 | [2] 0.02 | [3] -0.021 | [4] -0.195 | [5] 0.024 | [6] 0.025 | [7] 0.062 | [8] 0.007 | [9] -0.087 | [10] 0.085 | [11] -0.009 | [12] 0.024 | [13] 0.021 | [14] 0.105 | [15] -0.001 | [16] -0.05 | [17] 0.076 | [18] -0.028 | [19] -0.05 | [20] -0.03

CD46 isoform 2 (UniProt P15529)
inactive: [1] 0.002 | [2] -0.005 | [3] -0.025 | [4] -0.01 | [5] -0.08 | [6] 0.086 | [7] -0.034 | [8] 0.063 | [9] 0.124 | [10] -0.003 | [11] -0.052 | [12] 0.011 | [13] 0.064 | [14] -0.046 | [15] -0.081 | [16] -0.071 | [17] -0.039 | [18] 0.058 | [19] -0.023 | [20] 0.014

CAVIN1 (UniProt Q6NZI2)
inactive: [1] -0.011 | [2] 0.009 | [3] 0.022 | [4] 0.006 | [5] -0.018 | [6] -0.062 | [7] -0.038 | [8] 0.003 | [9] -0.004 | [10] -0.024 | [11] 0.004 | [12] 0.002 | [13] 0.038 | [14] 0.026 | [15] -0.022 | [16] 0.003 | [17] 0.051 | [18] 0.009 | [19] -0.011 | [20] -0.028

CCDC134 (UniProt Q9H6E4)
inactive: [1] -0.024 | [2] -0.02 | [3] 0.094 | [4] 0.023 | [5] 0.015 | [6] 0 | [7] -0.004 | [8] -0.038 | [9] 0.04 | [10] 0.003 | [11] -0.02 | [12] 0.002 | [13] 0.02 | [14] 0.041 | [15] 0.015 | [16] 0.146 | [17] 0.007 | [18] -0.007 | [19] 0.008 | [20] 0.008

CCT8 (UniProt P50990)
inactive: [1] -0.036 | [2] 0.014 | [3] 0.018 | [4] -0.008 | [5] -0.003 | [6] 0 | [7] -0.006 | [8] -0.011 | [9] 0.006 | [10] -0.006 | [11] 0.002 | [12] -0.013 | [13] -0.002 | [14] -0.001 | [15] -0.016 | [16] 0.013 | [17] 0.015 | [18] -0.015 | [19] -0.008 | [20] 0.005

Copied from the entries so far (2 entries):
CD46 isoform 2 (UniProt P15529)
inactive: [1] 0.002 | [2] -0.005 | [3] -0.025 | [4] -0.01 | [5] -0.08 | [6] 0.086 | [7] -0.034 | [8] 0.063 | [9] 0.124 | [10] -0.003 | [11] -0.052 | [12] 0.011 | [13] 0.064 | [14] -0.046 | [15] -0.081 | [16] -0.071 | [17] -0.039 | [18] 0.058 | [19] -0.023 | [20] 0.014

CAVIN1 (UniProt Q6NZI2)
inactive: [1] -0.011 | [2] 0.009 | [3] 0.022 | [4] 0.006 | [5] -0.018 | [6] -0.062 | [7] -0.038 | [8] 0.003 | [9] -0.004 | [10] -0.024 | [11] 0.004 | [12] 0.002 | [13] 0.038 | [14] 0.026 | [15] -0.022 | [16] 0.003 | [17] 0.051 | [18] 0.009 | [19] -0.011 | [20] -0.028

Following part

CBS (UniProt P35520)
inactive: [1] 0.014 | [2] 0.003 | [3] 0.029 | [4] -0.034 | [5] 0 | [6] -0.014 | [7] 0.013 | [8] -0.018 | [9] 0.031 | [10] 0.002 | [11] -0.002 | [12] 0.038 | [13] 0.024 | [14] -0.038 | [15] 0.003 | [16] 0.026 | [17] 0.022 | [18] 0.006 | [19] -0.002 | [20] 0.016

CARHSP1 (UniProt Q9Y2V2)
inactive: [1] -0.014 | [2] -0.08 | [3] 0.011 | [4] -0.053 | [5] 0.003 | [6] 0.047 | [7] 0.003 | [8] -0.012 | [9] -0.033 | [10] 0.019 | [11] 0.037 | [12] -0.037 | [13] 0.017 | [14] -0.004 | [15] -0.04 | [16] -0.006 | [17] 0.035 | [18] -0.034 | [19] -0.026 | [20] -0.001

CCDC115 (UniProt Q96NT0)
inactive: [1] 0.052 | [2] 0.014 | [3] -0.013 | [4] -0.018 | [5] -0.039 | [6] 0.014 | [7] -0.022 | [8] 0.016 | [9] 0.014 | [10] 0.005 | [11] -0.007 | [12] -0.052 | [13] -0.019 | [14] -0.002 | [15] 0.043 | [16] 0.029 | [17] -0.037 | [18] -0.035 | [19] 0.062 | [20] -0.066
